Data source: PubChem BioAssay AID686937 (Drosophila RNAi Screening Center, 2013)
The deposit covers about 23,000 reagents; below is an unselected part of those that have a named target and a result. 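Reduced-secretion tags in replicate 1 do not always agree with the z-scores; no criterion for assigning the tags was given.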 A plus sign joins genes that one reagent is predicted to hit. Further read-outs or replicates are left out here. Not given: the amount of reagent.

Aim: 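Knock-downs that reduce output of a secreted reporter enzyme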 (primary screen)
Cell system: Drosophila S2 cells expressing secreted horseradish peroxidase
Reagents: long dsRNA against Drosophila genes
Timing: about 5.5 days (5 days dsRNA, then 12 h reporter induction)
Conditions: reporter expression induced after 5 days of dsRNA, read 12 h later; inducer not stated
Measured: 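Chemiluminescent measurement of peroxidase in the medium 12 h after reporter induction, following 5 days of dsRNA, given as a z-score per plate; higher means more secretion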
Direction: z-score: higher = more reporter secreted into medium

Target gene	DRSC id	z-score, replicate 1	z-score, replicate 2
fabp + sea	DRSC16114	0.41	0.41
fabp + sea	DRSC16115	0.7	0.68
Coq2 (Coenzyme Q biosynthesis protein 2)	DRSC16516	0.33	0.79
Coq2 (Coenzyme Q biosynthesis protein 2)	DRSC21366	0.86	-0.28
CG6893	DRSC10742	0.32	0.33
CG12105	DRSC08255	0.43	0.36
Axud1 (AXIN1 up-regulated 1)	DRSC00270	0.16	0.11
Gdap2	DRSC06789	0.37	0.42
Gdap2	DRSC06790	0.28	0.23
wdb (widerborst)	DRSC14163	0.06	0.05
CG7920	DRSC16346	0.4	0.42
CG7920	DRSC21594	0.72	-0.05
CG17202	DRSC15194	-1.71	0.26
CG14265	DRSC18591	0.21	0.5
asRNA:CR43299 + CG8119	DRSC20083	0.2	0.38
CG7573	DRSC10884	0.45	0.38
Hil (Hillarin)	DRSC05989	0.25	0.11
Hil (Hillarin)	DRSC06395	0.41	0.43
CG32195	DRSC09533	0.39	0.29

Sorted by “z-score, replicate 1” (low to high): 4 of the entries above.
Target gene	DRSC id	z-score, replicate 1	z-score, replicate 2
CG17202	DRSC15194	-1.71	0.26
asRNA:CR43299 + CG8119	DRSC20083	0.2	0.38
CG14265	DRSC18591	0.21	0.5
CG7920	DRSC21594	0.72	-0.05

More results:
Target gene	DRSC id	z-score, replicate 1	z-score, replicate 2
CG18547	DRSC15345	-0.26	-0.22
Tctp (Translationally controlled tumor protein)	DRSC15649	0.05	-0.42
LManIII (Lysosomal alpha-mannosidase III)	DRSC03221	0.35	0.26
CG16723	DRSC15138	0.28	0.36
Sod1 (Superoxide dismutase 1)	DRSC11286	0.46	0.47
CG3402	DRSC08567	0.22	0.06
CG44000 + CG33995 + CG44001	DRSC00853	0.5	-0.33
CG44000 + CG33995 + CG44001	DRSC02898	-0.1	0.27
CG3473	DRSC01915	-0.05	0.27
CG6051	DRSC15956	-1.26	-0.63
CG31639	DRSC00910	0.01	0.12
CG34229	DRSC06316	0.42	0.35
CG13228	DRSC06348	0.03	0.35
opa (odd paired)	DRSC12384	-0.2	0.25
opa (odd paired)	DRSC22563	0.11	0.22
